These are yes or no findings as the source states them, for the method shown. In cells and extracts the contact can be indirect.
Molecular target: NEDD4L (human (endogenous in Ishikawa)) (UniProt Q96PU5)
Assay: co-IP; lysates of Ishikawa cells infected with Lv-CTL or Lv-RAB17, immunoprecipitated with the indicated primary antibody and immunoblotted as indicated

Sequences of proteins named here, by UniProt entry; tags and fusion partners are left off.
UniProt Q96PU5: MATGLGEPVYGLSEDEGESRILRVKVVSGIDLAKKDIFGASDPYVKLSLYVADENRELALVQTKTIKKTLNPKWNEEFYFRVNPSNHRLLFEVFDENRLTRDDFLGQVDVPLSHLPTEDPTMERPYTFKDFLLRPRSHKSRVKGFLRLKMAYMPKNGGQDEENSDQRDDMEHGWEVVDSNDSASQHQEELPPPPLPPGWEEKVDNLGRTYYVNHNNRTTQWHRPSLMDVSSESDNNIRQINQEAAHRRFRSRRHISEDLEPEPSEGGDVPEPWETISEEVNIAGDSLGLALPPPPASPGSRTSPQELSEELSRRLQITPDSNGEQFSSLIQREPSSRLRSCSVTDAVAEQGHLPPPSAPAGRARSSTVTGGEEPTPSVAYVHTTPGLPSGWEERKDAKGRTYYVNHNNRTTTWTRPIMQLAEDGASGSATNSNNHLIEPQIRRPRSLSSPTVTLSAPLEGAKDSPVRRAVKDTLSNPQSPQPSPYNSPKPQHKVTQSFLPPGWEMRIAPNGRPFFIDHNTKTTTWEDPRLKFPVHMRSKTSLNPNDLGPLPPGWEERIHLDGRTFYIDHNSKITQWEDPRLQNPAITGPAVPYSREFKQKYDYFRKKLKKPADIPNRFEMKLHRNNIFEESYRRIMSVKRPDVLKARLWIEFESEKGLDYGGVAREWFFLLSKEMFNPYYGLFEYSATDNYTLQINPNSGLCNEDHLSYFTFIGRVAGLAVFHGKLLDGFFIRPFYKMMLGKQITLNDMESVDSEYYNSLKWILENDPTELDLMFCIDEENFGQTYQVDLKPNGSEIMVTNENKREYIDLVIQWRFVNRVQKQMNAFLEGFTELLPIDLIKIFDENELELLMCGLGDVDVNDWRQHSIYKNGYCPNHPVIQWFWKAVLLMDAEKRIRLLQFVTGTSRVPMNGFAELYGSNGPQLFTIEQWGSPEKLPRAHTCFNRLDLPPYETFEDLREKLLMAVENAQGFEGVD

B1: RAB17 overexpressed from lentivirus (Lv-RAB17) (protein, UniProt Q9H0T7 1-212)
chain: MAQAHRTPQPRAAPSQPRVFKLVLLGSGSVGKSSLALRYVKNDFKSILPTVGCAFFTKVVDVGATSLKLEIWDTAGQEKYHSVCHLYFRGANAALLVYDITRKDSFLKAQQWLKDLEEELHPGEVLVMLVGNKTDLSQEREVTFQEGKEFADSQKLLFMETSAKLNHQVSEVFNTVAQELLQRSDEEGQALRGDAAVALNKGPARQAKCCAH
  binding: no binding
